No constants are given. Whether binding was seen depends on the method and setting. Some results given as binding are weak or reduced against the parent protein; the word gives no strength.
Assays:
[1] = target: Recombinant TGFbRII-Fc protein (R&D systems) (human) (UniProt P37173); assay: titration ELISA, TGFbRII-Fc coated at 1 µg/ml, dAb from 10 µg/ml two-fold, anti-c-Myc-HRP
[2] = target: Recombinant TGFbRII-Fc protein (R&D systems) (human) (UniProt P37173); assay: titration ELISA on plates coated with TGFbRII-Fc at 1 µg/ml; His-purified dAb in two-fold dilutions from 10 µg/ml; detection with anti-C-Myc-HRP

Protein sequences, listed by entry. Tags and fused reporters are not part of them. Lines headed by an entry give the natural chain unless they say otherwise; changes in a name come on top.
UniProt P37173: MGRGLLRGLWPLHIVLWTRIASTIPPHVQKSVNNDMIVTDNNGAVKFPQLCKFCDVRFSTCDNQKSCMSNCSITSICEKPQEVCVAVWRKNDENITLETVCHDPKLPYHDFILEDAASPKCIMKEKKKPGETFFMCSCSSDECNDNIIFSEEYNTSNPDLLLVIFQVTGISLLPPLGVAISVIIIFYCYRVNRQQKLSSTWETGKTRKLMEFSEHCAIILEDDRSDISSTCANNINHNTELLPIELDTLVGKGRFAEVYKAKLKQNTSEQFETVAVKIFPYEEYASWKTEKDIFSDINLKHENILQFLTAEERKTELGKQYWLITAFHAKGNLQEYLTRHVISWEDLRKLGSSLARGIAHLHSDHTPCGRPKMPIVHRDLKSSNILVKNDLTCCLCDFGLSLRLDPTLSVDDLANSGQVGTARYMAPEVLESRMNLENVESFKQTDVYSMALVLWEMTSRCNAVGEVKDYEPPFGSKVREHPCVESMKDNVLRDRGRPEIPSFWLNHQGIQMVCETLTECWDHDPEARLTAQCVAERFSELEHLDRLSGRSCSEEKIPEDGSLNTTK

B1: anti-TGFβRII single domain antibody (dAb) clone H3 (VHH)
VHH: QVQLQQSGGGLVQAGGSLRLACAASGRSFSIYGITWFRQAPGKEREFVAAITGSGLTTNYADSVKGRFTISRDNAKNMVYLQLNSLKPDDTAVYYCAATRAYSGYYGENPTRYAYWGQGTQVTVS
notes: H3 is the one clone not 'related' to the other three; also called dAb H3; anti-TGFbRII VHH H3
binding [1]: binds
binding [2]: binds

— patent US20210244762A1 (AUTOLUS, published 2021)
